# In PubChem BioAssay AID540256 (National Center for Advancing Translational Sciences (NCATS), 2011):
# In all, about 300,000 compounds went through this assay and about 3,700 (1.2%) were called active. The inconclusive results got no clear call from the source; some entries with a clear call stand among them for comparison. Calls come from the whole dose curve; tested in HEK293 cells. Potencies beside an inconclusive call are fits to weak or partial responses and may not hold up.
# Assay: qHTS for Inhibitors of binding or entry into cells for Lassa Virus; note: nearly all actives have a fitted effect of over 50% in size
# Details: Lassa virus pseudotype entry inhibition, cell reporter; series mostly up to 37.9 µM
# Potency is the fitted concentration of half-maximal effect.
row,Compound,Potency
1,CCOc1ccc(OCC)c(NS(=O)(=O)c2c(C(=O)N3CCCCCC3)c(C)n(C)c2C)c1,inactive
2,CCOc1ccc(C(=O)c2cn(CC(=O)Nc3ccc(F)cc3)c3cc4c(cc3c2=O)OCCO4)cc1,inactive
3,CC(=O)Nc1ccc(S(=O)(=O)NC(CC(=O)NCCC2=CCCCC2)C(C)C)cc1 (stereo not drawn),"inconclusive: 11.2 µM [inhibitor, partial curve, poor fit]"
4,COc1cccc(C(=O)O/N=C/c2ccc(Sc3ccc(C)cc3)nc2)c1,"inconclusive: 2.82 µM [inhibitor, partial curve, poor fit]"
5,CCC(=O)Nc1cnc(NC(=O)c2cccc(F)c2)cc1C,"inconclusive: 1.12 µM [activator, single point]"
6,COc1ccc(OCc2cc(C(=O)NCC(C)Oc3cccnc3)no2)c(Cl)c1 (stereo not drawn),"inconclusive: 8.91 µM [activator, partial curve]"
7,CC(C)c1ccc(OCC(=O)N2CCN(CCc3ccncc3)CC2)cc1,"inconclusive: 11.2 µM [activator, single point]"
8,Cc1nn(Cc2ccccc2)c(C)c1C(=O)OCC(=O)c1cc(C)n(CC(F)(F)F)c1C,active: 1.78 µM
9,Cc1ccc(S(=O)(=O)N(CC(O)CN2CCOCC2)c2cc(Cl)ccc2Cl)cc1 (stereo not drawn),"inconclusive: 8.91 µM [inhibitor, partial curve, poor fit]"
10,COc1ccccc1C(=O)OCCNC(=O)Cn1cnc2c1c(=O)n(C)c(=O)n2C,"inconclusive: 5.17 µM [activator, single point]"
11,CCOC(=O)c1cnn(CCOC(=O)c2ccc(OC)cc2)c1NC(=O)c1ccc(OC)cc1,"inconclusive: 5.17 µM [inhibitor, partial curve, poor fit]"
12,C/C(CC(=O)NCc1ccc(Cl)cc1)=N\NC(=O)COc1ccc(C)cc1Br,"inconclusive: 5.62 µM [inhibitor, partial curve, poor fit]"
13,c1cncc(-c2nc(NCc3ccco3)c3ccccc3n2)c1,inactive
14,Cc1cc(-c2ccccc2)nc(N/N=C/c2ccccc2)n1,"inconclusive: 14.1 µM [inhibitor, single point]"
15,Cc1ncc(CC(=O)n2cc(C(=O)c3cc(Cl)ccc3O)cn2)s1,"inconclusive: 31.6 µM [activator, single point]"
16,Cc1ccc2c(=O)cc(C(=O)Nc3ccc(S(=O)(=O)N(C)Cc4ccccc4)cc3)oc2c1C,inactive
17,Cc1ccc(-c2nn(C(C)(C)C)c3ncnc(N)c23)cc1,"inconclusive: 20 µM [inhibitor, partial curve, poor fit]"
18,c1csc(-c2nnc(NC3CCCCC3)c3ccccc23)c1,inactive
19,CCCCCC1CC(CC(=O)NC(=S)Nc2ccccc2Cl)C(=O)O1 (stereo not drawn),"inconclusive: 6.31 µM [inhibitor, single point]"
20,COc1ccc(C(=O)N/N=C/c2cc(Br)ccc2O)cc1OC,active: 2.51 µM
21,COc1ccc(-c2nnc(COc3ccc4ccccc4c3)o2)cc1OC,active: 20.6 µM
22,C#CCN1C(=O)S/C(=C\c2ccc(-c3ccc(C(=O)O)cc3C)o2)C1=O,"inconclusive: 0.631 µM [inhibitor, full curve, poor fit]"

# Pulled one by one from above:
row,Compound,Potency
16,Cc1ccc2c(=O)cc(C(=O)Nc3ccc(S(=O)(=O)N(C)Cc4ccccc4)cc3)oc2c1C,inactive
3,CC(=O)Nc1ccc(S(=O)(=O)NC(CC(=O)NCCC2=CCCCC2)C(C)C)cc1 (stereo not drawn),"inconclusive: 11.2 µM [inhibitor, partial curve, poor fit]"

# The list goes on:

row,Compound,Potency
1,Cc1ccc(C(=O)Nc2ccc(Cl)cc2C(F)(F)F)c(Cl)c1,inactive
2,CCOC(=O)N1CCC(n2c(SCC(=O)NCCC3=CCCCC3)nc3ccccc3c2=O)CC1,"inconclusive: 32.6 µM [inhibitor, single point]"
3,Cc1[nH]n(-c2ccccc2)c(=O)c1-c1ccccc1,inactive
4,COc1ccc(-c2noc(CC(=O)Nc3ccc(Br)cc3C)n2)cc1,inactive
5,Oc1ccc(/C=N/N=C/c2ccc(O)c(O)c2)cc1O,"inconclusive: 22.4 µM [inhibitor, partial curve, poor fit]"
6,O=C(NCc1ccc2c(c1)OCO2)C1CCN(Cc2cnn(-c3ccccc3)c2-n2cccc2)CC1,"inconclusive: 10 µM [inhibitor, partial curve]"
7,COc1ccc(C(=O)Nc2ccccc2C(=O)N/N=C/c2ccc(O)c(OC)c2)cc1,active: 0.355 µM
8,COc1ccc(NC(=O)CCc2nnc3ccc(NCc4ccco4)nn23)cc1,"inconclusive: 11.2 µM [inhibitor, partial curve, poor fit]"
9,CCOC(=O)C1CCCN(S(=O)(=O)c2cc3c4c(c2)CC(=O)N4CCC3)C1 (stereo not drawn),"inconclusive: 28.2 µM [inhibitor, single point]"
10,Cc1ccc(NC(=O)CCNS(=O)(=O)c2cccc3nonc23)cc1,"inconclusive: 0.517 µM [inhibitor, partial curve, poor fit]"
11,O=C1/C(=C/c2cccnc2)SC(=S)N1c1ccc(O)cc1,"inconclusive: 17.8 µM [inhibitor, partial curve, poor fit]"
12,Cc1ncsc1CCC(=O)N1CCCC(Nc2ccc(F)c(F)c2)C1 (stereo not drawn),inactive
13,COc1ccc(OC)c(NC(=O)CSc2nnc3ccc(-c4ccccn4)nn23)c1,inactive
14,Cc1c(NCc2cccnc2)cccc1C(=O)O,"inconclusive: 28.2 µM [inhibitor, single point]"
15,CCc1ccc(-c2csc(NC(=O)Oc3ccccc3)n2)cc1,"inconclusive: 0.316 µM [activator, partial curve, poor fit]"
16,O=C(c1ccc(S(=O)(=O)c2cccc(Cl)c2)c([N+](=O)[O-])c1)N1CCN(Cc2ccccc2)CC1,"inconclusive: 1.26 µM [inhibitor, full curve, poor fit]"
17,COc1cccc(C(=O)NCCN2C(=O)S/C(=C/c3cccs3)C2=O)c1OC,"inconclusive: 7.08 µM [inhibitor, full curve, poor fit]"
18,Cn1c(=O)n(C)c2cc(NC(=O)CCl)ccc21,active: 18.3 µM
19,N#C/C(=C\c1cccnc1)c1nc2c(s1)CCCC2,"inconclusive: 7.08 µM [activator, full curve]"
20,Cc1ccc(S(=O)(=O)N2CCCCC2C(=O)NCc2ccco2)cc1 (stereo not drawn),"inconclusive: 20 µM [inhibitor, partial curve, poor fit]"
21,COC(=O)c1sc(C(F)(F)F)c(-c2ccccc2)c1S(=O)(=O)N(C)C,"inconclusive: 6.31 µM [activator, single point]"
